Measured values reported in patent US12338279B2, “Selective and potent inhibitory antibodies of myostatin activation” (SCHOLAR ROCK, INC., priority 2022, dated 2025).

Tested on: human pro-myostatin
Test: SEC-MALS binding stoichiometry
Settings: MALS observed weight

B1: Ab123 Fab: Ab123 Fab fragment (antibody)
VH: EVQLVESGGGLVQPGGSLRLSCAASGFTFSKYDMSWVRQAPGKGLELVASISSSGGTRYYPDSVKGRFTISRDNAKNSLYLQMNSLRAEDTAVYYCAKDLWVASPGYGMDVWGQGTTVTVSS
light: DIVMTQSPLSLPVTPGEPASISCRSSQSLLHSSGHNYLHWYLQKPGQSPQLLIYLGSIRAPGVPDRFSGSGSGTDFTLKISRVEAEDVGVYYCMQALLNPPTFGGGTKVEIKRTVAAPSVFIFPPSDEQLKSGTASVVCLLNNFYPREAKVQWKVDNALQSGNSQESVTEQDSKDSTYSLSSTLTLSKADYEKHKVYACEVTHQGLSSPVTKSFNRGEC
In the case of B1, the “Observed Molecular Weight (kDa) of Fab:pro-myostatin complex” value is reported as 137.5 kDa.
